According to PMC7819943, “Rice protein-binding microarrays: a tool to detect cis-acting elements near promoter regions in rice”:
Some of the results follow.

Sequences of proteins named here, by UniProt entry; tags and fusion partners are left off.
UniProt Q0JBA9, entry or part of it: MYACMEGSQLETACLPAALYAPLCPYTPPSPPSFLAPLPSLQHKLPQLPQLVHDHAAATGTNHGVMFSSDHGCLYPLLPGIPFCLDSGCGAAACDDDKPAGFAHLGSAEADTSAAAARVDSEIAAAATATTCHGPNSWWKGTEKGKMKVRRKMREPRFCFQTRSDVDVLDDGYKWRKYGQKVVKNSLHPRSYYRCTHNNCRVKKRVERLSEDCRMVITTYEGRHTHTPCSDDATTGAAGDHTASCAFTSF

Target: OsWRKY34 (Oryza sativa, UniProt Q0JBA9 1-250)
Assay: protein-binding microarray (RPBM); PBS, 2% BSA, 51.3 ng/ul salmon testes DNA, 50 uM zinc acetate, 200 nM TF, 25 C, 1 h; high values mean tight binding
Conditions: protein: recombinant; tags: N-terminal polyhistidine and DsRed monomer fusion (pET32a); label: CyDye5-dUTP incorporated in the synthesized complementary strand; 3' TTTTT single-stranded linker to array surface; dsDNA, one strand shown
In short: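 Transcription factors were made in E. coli BL21-CodonPlus as N-terminal fusions to a polyhistidine tag and DsRed, then purified on Ni–NTA. After primer extension with Cy5-dUTP and blocking with 2% BSA, a custom Agilent array was exposed for 1 h at 25 °C to 200 nM protein in PBS, 2% BSA, salmon testes DNA and 50 µM zinc acetate. Washed arrays were scanned on an Axon 4000B, and the binding signal is per-feature fluorescence intensity in arbitrary units.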

Sequence | binding signal
AATGTTTACTCAGAGTTGAAATTCTTTGTCAATTGTCCTTCGGAGTCACCTAGTGCAG | 8260 fluorescence intensity (a.u.)
ATGACTTCCGATCTACTACTCCAGTCTACTAGACCGCACACGGAGTCACCTAGTGCAG | 8080 fluorescence intensity (a.u.)
AAAGCTCTCCACGTCACCACCGCCGCCACGCTCTCGCCTCCGGAGTCACCTAGTGCAG | 9580 fluorescence intensity (a.u.)
TTCCACCGCCGCCGCCGCCGCCGCCGCTCGCCGCCGCTCCCGGAGTCACCTAGTGCAG | 8670 fluorescence intensity (a.u.)
CTCTCTCTCTCTCTCTCTCTCTCTCCAACCACTCCAACGACGGAGTCACCTAGTGCAG | 10300 fluorescence intensity (a.u.)
GCAGTAGGGGTCTCGCATCCTCTACAGTCACTCGCTTAGCCGGAGTCACCTAGTGCAG | 8980 fluorescence intensity (a.u.)
TAACACGGGTGTCCTTCGTCGAATGATTCTTTCGCTGTTTCGGAGTCACCTAGTGCAG | 10200 fluorescence intensity (a.u.)
TTATAAACTTGGTCAAACTTAATAAAGTTTGACTAGAAAACGGAGTCACCTAGTGCAG | 8320 fluorescence intensity (a.u.)
GCTATGCCTCGCGTGCTCGCTGCTGCTGCGCGCCCGCGCGCGGAGTCACCTAGTGCAG | 8200 fluorescence intensity (a.u.)
AGGGGAGAGGAGGGGAGGCGGCGCGGCGGCGAGGAGGGGACGGAGTCACCTAGTGCAG | 10200 fluorescence intensity (a.u.)
GCGTTGGGTCAAATGGTCAATGGTTGTGGGACTGTGGGGCCGGAGTCACCTAGTGCAG | 8360 fluorescence intensity (a.u.)
ACACATAGTGTTGGCCACACCTGTCGGTTTCATGGTTAATCGGAGTCACCTAGTGCAG | 9100 fluorescence intensity (a.u.)
ATCCGATCCTCTTCTCTTCTCTTCTCTTCTTCCCCACATCCGGAGTCACCTAGTGCAG | 8660 fluorescence intensity (a.u.)
TGTTTGTTGCTCACTCCTTTCTTGATTATTAGTTGGTAGCCGGAGTCACCTAGTGCAG | 9820 fluorescence intensity (a.u.)
TCCTTTTTTTAAATCAACGGGACTCCAGTTTTTATATTTTCGGAGTCACCTAGTGCAG | 9060 fluorescence intensity (a.u.)
CTCACAGTAAGCTTGTCCAACAGATCCATTCCTAACCTACCGGAGTCACCTAGTGCAG | 8140 ± 110 fluorescence intensity (a.u.)
GTTCCACGTTTGAAGGCATTTCTGTCCCGTCCAGATTCATCGGAGTCACCTAGTGCAG | 9480 fluorescence intensity (a.u.)
CATGCTTTCATTGTTGTTGTCGTGCCTTACTACGTTTCAGCGGAGTCACCTAGTGCAG | 9000 fluorescence intensity (a.u.)
TCATCCACACGCGCCATTGTTTGTTGCCGAAAATTGAAAACGGAGTCACCTAGTGCAG | 8380 fluorescence intensity (a.u.)
AGGCTCCACTCCGACGAGATAGCTTCGTGTTGGCCAACGCCGGAGTCACCTAGTGCAG | 8930 fluorescence intensity (a.u.)
CCACCGCCCACCGCGCCGTCGTATAACTCTCTCCATGTCTCGGAGTCACCTAGTGCAG | 9560 fluorescence intensity (a.u.)
ACAACGAACTATTCACCATATTCACCACACGCCCTTCTGTCGGAGTCACCTAGTGCAG | 8400 fluorescence intensity (a.u.)
TATCTAAATATTTGACGCCGTTGACTTTTTAAAACATGTTCGGAGTCACCTAGTGCAG | 30900 fluorescence intensity (a.u.)
CTTTCACGAATAGGCTCTCGACACTACTTATTGCTGTCTACGGAGTCACCTAGTGCAG | 8720 fluorescence intensity (a.u.)
ATTTAGGGTTAGGTTTTTTGGTTTCTTTTATTTCTTTTTCCGGAGTCACCTAGTGCAG | 11200 fluorescence intensity (a.u.)
TTCGTGCCGTCCTTTTACAATTTTATACGTGTCTTATTACCGGAGTCACCTAGTGCAG | 13500 fluorescence intensity (a.u.)
TCTTTGCTGGTTTCCTCACAACCACTCTTCCAAAATTATGCGGAGTCACCTAGTGCAG | 8420 fluorescence intensity (a.u.)

Sequence | binding signal
AACCTAAACCCAATTTATTTGTTCGTCCTTTTCCGATTGACGGAGTCACCTAGTGCAG | 9280 fluorescence intensity (a.u.)
CGCGGTGATATCTCTATTCAGTCGATCTCCTTCTTATCTTCGGAGTCACCTAGTGCAG | 8620 fluorescence intensity (a.u.)
GCTGTCGCCGCGGAAACCGTTTCTTTCTTCTTTTTTTCCTCGGAGTCACCTAGTGCAG | 9000 fluorescence intensity (a.u.)
GTGGTGGGGTGGCAAGGAGGAGCGGGGCACGCCGGTGGTGCGGAGTCACCTAGTGCAG | 12100 fluorescence intensity (a.u.)
TAGCTTTCTTTCCCTGCTCGTTTTCTTCTCTCTTGCGCCACGGAGTCACCTAGTGCAG | 10000 fluorescence intensity (a.u.)
ATTCCGTATCGATCTCTGCCTTTCTCTGTCTCTGCACTGACGGAGTCACCTAGTGCAG | 10800 fluorescence intensity (a.u.)
TTTATCCTTTGCTTTCCACTTGATTTCTCCACTGACTCATCGGAGTCACCTAGTGCAG | 9860 fluorescence intensity (a.u.)
ATTTCGGTCTCATTTCTGTTAGTTCGGTTGGTTTTAATTTCGGAGTCACCTAGTGCAG | 10500 fluorescence intensity (a.u.)
TCTCGCTGTATCTGCTCCGCCCGCCCGCCATATCTCCTTCCGGAGTCACCTAGTGCAG | 8120 fluorescence intensity (a.u.)
AAACTTAATTAATCATATGTTATTGGTTTTCTCGTTTTACCGGAGTCACCTAGTGCAG | 9060 fluorescence intensity (a.u.)
ATTGCACACCCTAAACTTGTAAAACCGGACGAATTATCCCCGGAGTCACCTAGTGCAG | 8220 fluorescence intensity (a.u.)
TCCGTCACCAATGATGTCCCGGCGCCCTTCTTTGTATCCGCGGAGTCACCTAGTGCAG | 12600 fluorescence intensity (a.u.)
TTTTGCCATCTGGTAATCCCTCTACCACCAACAGCTACAACGGAGTCACCTAGTGCAG | 9220 fluorescence intensity (a.u.)
CCATCCCTTTCACTGTCGTCGCGGCCTCCCTGACCGCGCCCGGAGTCACCTAGTGCAG | 13000 fluorescence intensity (a.u.)
CTCTCAACCCATCGGCCATCGCCCACCACCGCCATTCGCCCGGAGTCACCTAGTGCAG | 11100 fluorescence intensity (a.u.)
GATCTCTTCTCGCTTCACGCTTCTCTCCTCCTCTCCGCGGCGGAGTCACCTAGTGCAG | 12000 fluorescence intensity (a.u.)
GTGTTGGCCCAGTCATTTTTGGCCTTTTTTAGCTGTCTGTCGGAGTCACCTAGTGCAG | 9030 fluorescence intensity (a.u.)
GCCGCCGCCCGCCGCCGCCGAGACCGACCCGACCACGATGCGGAGTCACCTAGTGCAG | 8960 fluorescence intensity (a.u.)
TCTTACCATTGTATTCTGGCAGTTCAACTTCCATGGAATTCGGAGTCACCTAGTGCAG | 11400 fluorescence intensity (a.u.)
ATCATCATATGTTTCACTCTTTTCAGTGTTGTGCTGCAACCGGAGTCACCTAGTGCAG | 8710 fluorescence intensity (a.u.)
CTAACATCCTAATTCTTTACCTTCCCTGTACCTTTGATTTCGGAGTCACCTAGTGCAG | 12500 fluorescence intensity (a.u.)
CGCCGACGCCCCACCGTGCCGCCACCCCGGCCTCGCCGGCCGGAGTCACCTAGTGCAG | 8540 fluorescence intensity (a.u.)
CCTACACCCACCAGAATATATGTTATGCTGCCCGCGTATGCGGAGTCACCTAGTGCAG | 9620 fluorescence intensity (a.u.)
CCCTCCTTCGCCACACCTCGTCTATCTCTACGCTTCCTGCCGGAGTCACCTAGTGCAG | 8720 fluorescence intensity (a.u.)
ATGGTGGGGATTAAAAGTGGATTAACCGAGCTTCCGATCGCGGAGTCACCTAGTGCAG | 9800 fluorescence intensity (a.u.)
GCACCACTTGCCACTACCCCTGATGTAAGATGGCTCGTCACGGAGTCACCTAGTGCAG | 8030 fluorescence intensity (a.u.)
GGTCCCAACTCCCAATCACCCAACCCAAAAAGTTGAATCCCGGAGTCACCTAGTGCAG | 8100 fluorescence intensity (a.u.)

Laid out differently: results already given.
TAACACGGGTGTCCTTCGTCGAATGATTCTTTCGCTGTTTCGGAGTCACCTAGTGCAG
  binding signal = 10200 fluorescence intensity (a.u.)
TTATAAACTTGGTCAAACTTAATAAAGTTTGACTAGAAAACGGAGTCACCTAGTGCAG
  binding signal = 8320 fluorescence intensity (a.u.)
GCTATGCCTCGCGTGCTCGCTGCTGCTGCGCGCCCGCGCGCGGAGTCACCTAGTGCAG
  binding signal = 8200 fluorescence intensity (a.u.)
